Results: PubChem BioAssay AID2685 (National Center for Advancing Translational Sciences (NCATS), 2010)
The other results are listed elsewhere or left out. The main result of the screen is listed elsewhere. These columns were measured beside it and carry no call. Compounds called inactive in the main read-out are mostly missing here. Words in brackets tell the shape of the fitted curve; partial curves, single points and poor fits give uncertain potencies.

Assay: qHTS Assay for Lipid Storage Modulators in Drosophila S3 Cells;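 as to cell number change: cells counted by Cell Tracker Red CMTPX staining in the red channel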
Details: BODIPY lipid droplet fluorescence, 18-24 h; for cell number change: measured here: cell count max response, cells fed with added oleic acid
In short: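 Drosophila S3 cells loaded with oleic acid (400 uM, as added) and compounds at several concentrations; lipid droplets imaged by 488-nm laser-scanning cytometry, 500–530 nm intensity and object ratio to cell channel. Percent activity normalized to 20 uM Triacsin C.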

[1] = measured here: cell number channel AC50, cells fed with added oleic acid
[2] = measured here: lipid fluorescence (Fed channel) AC50, cells fed with added oleic acid

`CCNC(=S)N1CCN(CC(=O)Nc2ccc(OC)cc2)CC1` showed a cell number change of 22.6%.

In the case of `Cn1c(=O)c(=O)n(C)c2cc(S(=O)(=O)N3CCN(C4CCCCC4)CC3)ccc21`, the cell number change is reported as -31.3%, the AC50 [1] is reported as 29.1 µM [falling, single point] and the AC50 [2] is reported as 32.6 µM [falling, single point].

In the case of `CN(C)CCCNc1oc(-c2ccc(Cl)cc2)nc1C#N`, the cell number change is reported as -31%, the AC50 [1] is reported as 20.6 µM [falling, single point] and the AC50 [2] is reported as 10.3 µM [falling, single point].

`CCOC(=O)C1CCN(C(=O)c2ccccc2Oc2ccccc2)CC1` gave a cell number change of -0.129%.

In the case of `CC(C)(C)c1cc(C(=S)N2CCCC2)cc(C(C)(C)C)c1O`, the cell number change is reported as 12.1% and the AC50 [2] is reported as 14.6 µM [falling, single point].

For `Cc1onc(-c2c(Cl)cccc2Cl)c1NC(=O)NN(C)c1ccc([N+](=O)[O-])cn1`, the cell number change was 20%, the AC50 [1] was 3.26 µM [rising, single point] and the AC50 [2] was 9.2 µM [rising, single point].

For `Cc1nc(SC(C)C(=O)NCC2CCCO2)c2cc(-c3ccccc3)sc2n1` (stereo not drawn), the cell number change was -15.3% and the AC50 [2] was 7.31 µM [falling, partial curve].

For `Cc1cccc(-c2cc(C(=O)Nc3cccnc3)c3ccccc3n2)c1`, the cell number change was 9.09% and the AC50 [2] was 20.6 µM [falling, partial curve].

In the case of `COC(=O)Nc1c(C(=O)OC)cc(OC)c(OC)c1OC`, the AC50 [2] is reported as 5.17 µM [falling, full curve, poor fit].

With `COc1cnc(-c2ccccn2)nc1NC(C)C` the cell number change was -2.31%, the AC50 [1] was 0.82 µM [falling, single point] and the AC50 [2] was 2.31 µM [falling, single point].

With `O=c1/c(=C\c2ccc(F)cc2)sc2n1CCCN=2` the cell number change was -10.5%, the AC50 [1] was 0.00517 µM [rising, full curve, poor fit] and the AC50 [2] was 0.731 µM [rising, partial curve, poor fit].

With `COc1ccccc1NC(=O)c1ccc(NC(=O)COC(=O)C2CCCO2)cc1` (stereo not drawn) the AC50 [2] was 2.31 µM [rising, partial curve].

In the case of `CCC1=Nc2cc(C(=O)NCCN3CCCC3)ccc2Sc2ccc(C)cc21`, the cell number change is reported as -1.81% and the AC50 [2] is reported as 2.31 µM [falling, single point].

In the case of `Cc1cc(C=C2C(=O)c3ccccc3C2=O)c(C)n1-c1ccc(Cl)cc1`, the cell number change is reported as -68.6% and the AC50 [1] is reported as 29.1 µM [falling, single point].

For `Cc1cccc(NC(=S)NCCN2CCOCC2)c1`, the cell number change was -6.5% and the AC50 [2] was 0.517 µM [falling, single point].

For `CCOC(=O)c1ccc(-n2c(N)c(C(=O)NCC3CCCO3)sc2=S)cc1` (stereo not drawn), the cell number change was -2.48% and the AC50 [2] was 29.1 µM [rising, single point].
